Data from PubChem BioAssay AID504444 (National Center for Advancing Translational Sciences (NCATS), 2011).
About 7,500 (2.1%) of roughly 360,000 compounds were called active. The shares of active, inactive and inconclusive entries below differ from those in the screen. Calls follow the shape of the dose curve; as a rule, active = well fitted inhibition curve with a large enough effect; inconclusive = small, poorly fitted or top-dose-only effect, or effect the other way; inactive = flat fitted curve, though single readings scatter. A potency beside an inconclusive call is a rough fit, not a confirmed value.

Test: Nrf2 qHTS screen for inhibitors; also: nearly all actives have a fitted effect of over 60% in size
Settings: A549 ARE-Fluc reporter, luciferase luminescence, 18-24 h; series mostly up to 46 µM
Procedure, shortened: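 A549 ARE_Fluc cells (5000/well, 5% FBS OPTI-MEM) pre-incubated 2 h, then treated with compounds 18-24 h at 37C/5% CO2 in concentration-response. CellTiter-Fluor viability read first; BugLite luciferase luminescence after 15 min at room temperature gives Nrf2 activity.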
Potency is read from the fitted curve at half-maximal effect.

SMILES | Potency
O=C(Nc1ccccn1)C1CCN(S(=O)(=O)c2cccs2)CC1 | inconclusive: 29.1 µM [falling, single point]
COc1ccccc1NC(=O)COc1cccc(-n2cnnn2)c1 | inconclusive: 0.103 µM [falling, full curve, poor fit]
COc1ccc(C2=NN(c3nc4ccccc4s3)C(=O)C2)cc1 | inconclusive: 29.1 µM [falling, single point]
CCCCC(=O)NC(c1cccs1)c1cc(Cl)c2cccnc2c1O (stereo unspecified) | inconclusive: 29.1 µM [falling, single point]
Cc1ccc(C(=O)CSC2=C(C#N)C(c3ccco3)C3=C(CC(C)(C)CC3=O)N2)cc1 (stereo unspecified) | active: 16.4 µM
O=C(N/N=C/c1ccccc1C(=O)O)c1ccc(COc2cccc3cccnc23)cc1 | inactive
CC1=CSC2=NC(=O)/C(=C\c3cccn3-c3ccccc3)C(=N)N12 | inactive
CCN(CC1COc2ccccc2O1)C(=S)Nc1ccc(F)cc1 (stereo unspecified) | inconclusive: 14.6 µM [falling, single point]
Cc1c(C)n(Cc2ccccc2)c2ccc(C(=O)NC(C)c3ccccc3)cc12 (stereo unspecified) | inactive
CCCCCC(=O)O[C@]1(C(C)=O)CC[C@H]2[C@@H]3CCC4=CC(=O)CC[C@]4(C)[C@H]3CC[C@@]21C | active: 20.6 µM
Nc1c(C(=O)N2CCCCC2)sc(=S)n1-c1ccccc1 | inactive
Cc1c(Cl)cccc1-n1ncc(C(=O)N2CCc3ccccc3C2)c1C1CCN(C(=O)OC(C)(C)C)CC1 | inconclusive: 20.6 µM [falling, single point]
C=CCOc1ccc(C(=O)c2ccccc2)c(OCC(=O)NC2(C#N)CCCC2)c1 | inconclusive: 23.1 µM [falling, single point]
COc1ccc(C(=O)CSc2nccn2C)cc1 | inconclusive: 20.6 µM [activator, partial curve, poor fit]
Cc1ccc(Cn2nc(C)c(NC(=O)c3cc(-c4ccc5c(c4)OCO5)on3)c2C)cc1 | inconclusive: 8.2 µM [falling, partial curve]
O=C(Nc1nc2ccccc2s1)C1c2ccccc2Oc2ccccc21 | inconclusive: 20.6 µM [falling, single point]
COc1cccc(-c2nc(NCc3ccccc3)c3ccccc3n2)c1O | inconclusive: 29.1 µM [falling, single point]
O=S(=O)(c1ccc(C2CCCCC2)cc1)N1CCOCC1 | inactive
COc1cc(Cl)c(C)cc1NC(=O)Cc1ccc(OC)c(OC)c1 | inconclusive: 23.1 µM [falling, single point]
CN(Cc1ccccc1)C(=O)C1CCN(S(=O)(=O)c2cc([N+](=O)[O-])ccc2Cl)CC1 | inconclusive: 32.6 µM [falling, single point]
CCc1cccc(CC)c1NC(=O)Cn1nnc2sc(-c3ccccc3)cc2c1=O | inactive
COc1ccccc1N/C=C/c1onc(C)c1[N+](=O)[O-] | inconclusive: 1.64 µM [activator, partial curve]

SMILES | Potency
Cc1ccc(C)c(NC(=O)CCC(=O)NNC(=O)c2cccc([N+](=O)[O-])c2)c1 | inconclusive: 25.9 µM [falling, partial curve, poor fit]
COc1ccc(NC(=O)NNC(=O)COc2ccc3cc(Br)ccc3c2)cc1 | inconclusive: 14.6 µM [activator, partial curve, poor fit]
CC(Sc1ccc2ccccc2n1)C(=O)O (stereo unspecified) | inactive
CCOCCCNC(=O)/C(C#N)=C/c1ccc([N+](=O)[O-])o1 | active: 25.9 µM
Cc1ccc(-c2nc3ccc(Cl)cn3c2Nc2ccc3c(c2)OCCO3)o1 | inconclusive: 3.26 µM [activator, partial curve, poor fit]
CC(=O)c1ccc(NC(=O)c2ccc(NC(=O)c3ccco3)cc2)cc1 | inconclusive: 4.11 µM [falling, partial curve]
CCC1(c2ccccc2)NC(=S)N(c2ccc(C)cc2)N1 (stereo unspecified) | inconclusive: 5.8 µM [activator, partial curve]
COc1cc(NC(c2ccccc2)c2ccccc2)cc(OC)c1OC | inactive
C=CCN(C(=O)CNS(=O)(=O)c1ccccc1)C(C(=O)NCCOC)c1ccncc1 (stereo unspecified) | inconclusive: 0.0052 µM [activator, full curve, poor fit]
Cc1cccc(Nc2nc(N)c([N+](=O)[O-])c(NCc3ccco3)n2)c1 | inconclusive: 20.6 µM [falling, single point]
O=C(c1ccc(S(=O)(=O)N2CCC(c3nc4ccccc4s3)CC2)cc1)N1CCCCC1 | inconclusive: 0.461 µM [falling, full curve, poor fit]
Cc1ccc(N/N=C2\CS(=O)(=O)N(C)c3ccsc32)cc1 | inconclusive: 20.6 µM [activator, partial curve, poor fit]
O=C(CN1C(=O)C2C3CC(C(Br)C3Br)C2C1=O)N1CCN(Cc2ccccc2)CC1 (stereo unspecified) | inconclusive: 3.66 µM [falling, partial curve, poor fit]
COc1cc(C#Cc2c(-c3cncn3C)n(C)c3ccc(-c4ccc5[nH]ccc5c4)cc23)cc(OC)c1 | inactive
O=C(NCc1ccc(F)cc1)C(=O)Nc1nc(C23CC4CC(CC(C4)C2)C3)cs1 | inconclusive: 29.1 µM [falling, single point]
O=C(CCn1cnc2onc(-c3ccc(F)cc3)c2c1=O)N1CCN(c2ccc(F)cc2)CC1 | inconclusive: 18.4 µM [falling, single point]
COc1ccc(-c2cn3ccccc3n2)cc1 | inactive
COc1ccc(NC(=O)CNC(c2ccccc2)c2ccccc2)cc1Cl | inconclusive: 11.6 µM [activator, partial curve, poor fit]
Cc1cccc(NC(=O)C2(C)CC3c4ccccc4C2c2ccccc23)c1C (stereo unspecified) | inconclusive: 18.4 µM [falling, partial curve, poor fit]
COc1cc(Cl)ccc1OCc1cc(C(=O)N(C)Cc2nnc(C)o2)no1 | inconclusive: 11.6 µM [activator, partial curve]
CCn1c(C(=O)N2CCCC(C(=O)NCCCOC)C2)cc2sccc21 (stereo unspecified) | inactive
CCOC(=O)NC1CCc2cc(OC)c(OC)c(OC)c2-c2ccc(SC)c(=O)cc21 (stereo unspecified) | inconclusive: 0.0326 µM [activator, full curve, poor fit]

SMILES | Potency
Cc1ccnc2nc(C(=O)OCCOc3ccc(F)cc3)nn12 | inconclusive: 23.1 µM [activator, partial curve, poor fit]
COc1ccc2c(c1)cc1c(=O)n(CC(=O)NC3CCCCC3)nc(C)n12 | inactive
Clc1ccc(-c2nc3cc(CN4CCCCC4)ccc3o2)cc1 | inconclusive: 2.59 µM [activator, full curve, poor fit]
CC(OC(=O)c1ccc(NS(=O)(=O)c2cccs2)cc1)C(=O)N(C)C1CCCCC1 (stereo unspecified) | inconclusive: 11.6 µM [falling, partial curve]
Cc1ccc(C(Nc2ccccn2)c2ccc3cccnc3c2O)cc1 (stereo unspecified) | inconclusive: 29.1 µM [falling, single point]
CC(NC(=S)NC1CCCCC1)c1ccc(C(C)(C)C)cc1 (stereo unspecified) | inconclusive: 29.1 µM [falling, single point]
COc1ccc(N(Cc2cc3ccccc3[nH]c2=O)S(=O)(=O)c2ccccc2)cc1 | inconclusive: 14.6 µM [falling, partial curve, poor fit]
COc1cc(Cl)c(NS(=O)(=O)c2ccc3c(c2)CC(C)N3C(=O)C2CCC2)c(OC)c1 (stereo unspecified) | active: 9.2 µM
CC(C)(C)[C@@H]1CCC(=O)N(CC[C@H](Sc2ccccc2)c2ccccc2)CC1 | inconclusive: 29.1 µM [falling, single point]
O=C(CCc1ccc(S(=O)(=O)N2CCOCC2)cc1)Nc1ccc(F)cc1[N+](=O)[O-] | inconclusive: 8.2 µM [falling, partial curve, poor fit]
Cc1ccc(CS(=O)(=O)c2cn(CC(=O)N(C)c3ccccc3)c3ccccc23)cc1 | inconclusive: 29.1 µM [activator, single point]
CC1=C(C(=O)OC2CCCC2)C(c2ccc(F)cc2F)CC(=O)N1 (stereo unspecified) | inconclusive: 20.6 µM [falling, single point]
Cc1[nH]c(=O)c(C(=O)/C=C/c2ccccc2)c2c1CCCC2 | active: 20.6 µM
CCOc1cc(C(=O)Nc2ccc3oc(-c4ccc(F)cc4Cl)nc3c2)cc(OCC)c1OCC | inconclusive: 10.3 µM [falling, partial curve]
O=C1CSC(=Nc2cccc(Cl)c2Cl)N1Cc1cccnc1 | inactive
O=S(=O)(Nc1ccc(-c2csc(-c3ccccc3)n2)cc1)c1ccc(F)cc1 | inactive
COc1cccc(S(=O)(=O)c2nc(C)c3c(n2)CCC3)c1 | inconclusive: 10.3 µM [activator, partial curve]
CCOc1ccc(NC(=O)CN(C)C(=O)CCNC(=O)c2ccccc2Cl)cc1OCC | inactive
CC(=O)Nc1cc(C(F)(F)F)ccc1OCC1CCCO1 (stereo unspecified) | inconclusive: 0.13 µM [falling, full curve]
Cn1nnnc1SCC(=O)N1CCN(c2ccc(Cl)cc2)CC1 | inconclusive: 13 µM [falling, partial curve]
O=C(Nc1ccc2c(c1)CN(Cc1ccc(CO)o1)CC2)c1ccc(C(F)(F)F)cc1 | inconclusive: 18.4 µM [falling, single point]
Cc1oc2c(c1C(=O)Nc1cccc(Br)c1)C1=NCCN1C=N2 | inconclusive: 0.13 µM [activator, full curve, poor fit]

Three of the compounds above, comma-delimited:
SMILES,Potency
Cc1ccnc2nc(C(=O)OCCOc3ccc(F)cc3)nn12,"inconclusive: 23.1 µM [activator, partial curve, poor fit]"
CC(C)(C)[C@@H]1CCC(=O)N(CC[C@H](Sc2ccccc2)c2ccccc2)CC1,"inconclusive: 29.1 µM [falling, single point]"
CCOc1ccc(NC(=O)CN(C)C(=O)CCNC(=O)c2ccccc2Cl)cc1OCC,inactive
